# Measured values: the supplement of paper PMC5949888
# Most values lie at the floor of the assay. Slopes are relative: functional sequences can read slightly below zero.
# System: Saccharomyces cerevisiae PS128 hsf1 delta, HSF1(1-493) fusion
# Test: growth estimate (transactivation domain function in HSF1 fusion, heat-shock survival) (a.u. (slope of normalised read count over time)); higher = stronger growth at 37°C, i.e. more transactivation activity
# Conditions: library: random library
row,Substance,growth estimate
1,LFHLVLVDCRWAYSS,< -0.25
2,LFIPRTFACNRPHAEG,< -0.25
3,LFKN,< -0.25
4,LFKVFLFPYR,< -0.25
5,LFLQACLVRLTPTKASVLRP,< -0.25
6,LFLRTPHVISYESGLHLLQA,< -0.25
7,LFLSFKSICGSGLLLTIARL,< -0.25
8,LFLVYIPRANLWHA,< -0.25
9,LFMR,< -0.25
10,LFMTELLRSFDGYDGATLDG,7.7
11,LFPLKVSITVNRMERIVCPG,< -0.25
12,LFPRKHAGRVAMLGIHTWVS,< -0.25
13,LFPSRWRGFEKGRSPCEKSV,< -0.25
14,LFQLTKAQGCVR,< -0.25
15,LFQLVQIIFRGPGTWVSALK,< -0.25
16,LFRMFDDAMDQGDTLNVTHR,-0.156
17,LFRSERSEP,< -0.25
18,LFRVVGGGSNFAEIGTIVCA,< -0.25
19,LFS,< -0.25
20,LFSTPRPLRAPDS,< -0.25
21,LFTPPRSSAPLDEV,< -0.25
22,LFVTAF,< -0.25
23,LFVVSPGPPFLRKVDLHLWA,< -0.25
24,LFWLVNTWLMGGVVQHVEEE,< -0.25
25,LFYGTA,< -0.25

row,Substance,growth estimate
1,LFYP,< -0.25
2,LGADSTIGNVQGRWPL,< -0.25
3,LGALGSRVHYGLLSGVKIWI,< -0.25
4,LGCLQVFIFSGWGV,< -0.25
5,LGCTRGDLDRRLAPPGIPWA,< -0.25
6,LGDAELMLTNVVPHSYYFTT,< -0.25
7,LGDAQPEDIETHRAGA,< -0.25
8,LGDEGTEPSG,< -0.25
9,LGDGFAVLRVQLLYARSLEQ,< -0.25
10,LGDGSGNVDKGQRSVQPSMH,< -0.25
11,LGDPNQGL,< -0.25
12,LGELALLLWEIAV,< -0.25
13,LGESFLGALQLTC,< -0.25
14,LGFCGDNHPNTKALIGRLWE,< -0.25
15,LGFDPDPGRTISARQSLDPP,< -0.25
16,LGFFGNFMEVRPHSGDITRK,0.417
17,LGFQENS,< -0.25
18,LGFVSVG,< -0.25
19,LGGHGRP,< -0.25
20,LGGIHALR,-0.246
21,LGGPTCLQMSIRSFRNASAK,< -0.25
22,LGGVTC,< -0.25
23,LGGWGSNS,< -0.25
24,LGGYTGKDLSVQWIWTVWAY,< -0.25
25,LGHGLGSCQSDSVRAVGPDL,< -0.25

row,Substance,growth estimate
1,LGHQLGSVQSQSALHMRATP,< -0.25
2,LGIAITGVGKVVFEIEDNIM,< -0.25
3,LGIESNCMVFFLAGVGAEAR,< -0.25
4,LGIFANLLDSRHITYYNYSH,< -0.25
5,LGIFGGVNHVACVTNFI,< -0.25
6,LGILKYLARRRQIR,< -0.25
7,LGILRILRFADTNFRDCALR,< -0.25
8,LGIRIP,< -0.25
9,LGITDSEFRCIPCA,< -0.25
10,LGITVR,< -0.25
11,LGKAGHGLYFAGGEPSKCDT,< -0.25
12,LGKGKESGSNYTGVQHNRVG,< -0.25
13,LGKKSMAPEWSPIVTGLELP,< -0.25
14,LGKPHVRQFLSGRLWKLILS,< -0.25
15,LGL,< -0.25
16,LGLAIEFGCGGFAGTYRSLV,< -0.25
17,LGLE,< -0.25
18,LGLGCKHNVAIRWSHGLAST,< -0.25
19,LGLLARRAR,< -0.25
20,LGLLQWVDPQRRSLLVILHL,< -0.25
21,LGLRP,< -0.25
22,LGLRVGDLLNQFNRRAGRNQ,< -0.25
23,LGLTVNFDPVHEDAGCA,< -0.25
24,LGLVRVCCMGVCTSESWSVI,< -0.25
25,LGLWSYCNTGTRVGD,< -0.25

# 6 entries from above, as tab-separated lines.
row	Substance	growth estimate
1	LFHLVLVDCRWAYSS	< -0.25
17	LFRSERSEP	< -0.25
21	LFTPPRSSAPLDEV	< -0.25
20	LGGIHALR	-0.246
21	LGGPTCLQMSIRSFRNASAK	< -0.25
7	LGILRILRFADTNFRDCALR	< -0.25

# The list goes on.

row,Substance,growth estimate
1,LGMGGNIGPRNRRRC,< -0.25
2,LGMRSYQQFGAWGRGVRRLR,< -0.25
3,LGMSSFDSIVRAEPVKR,< -0.25
4,LGMSVEGSSDSSIECDLAVD,< -0.25
5,LGNV,< -0.25
6,LGPGLNWED,< -0.25
7,LGPGNCPLSRWDLDRYGGVA,< -0.25
8,LGPLTLIPRVQRCKYGEGIT,< -0.25
9,LGPRLVATRWIVPCAAES,< -0.25
10,LGPTSPT,< -0.25
11,LGQCCRARILTCDW,< -0.25
12,LGREPTWKVRRYVGIPPSV,< -0.25
13,LGRGWGATRTRSITMIVSWR,< -0.25
14,LGRHFLQVPHVPAVPAPSST,< -0.25
15,LGRHSTPPVPESESIRFNTN,< -0.253
16,LGRKSARRGYFRVGGFEKPA,< -0.25
17,LGRLQPTFED,< -0.25
18,LGRQRRTRPTKERDQNPRYH,< -0.25
19,LGRRT,-0.229
20,LGRSSFSLEHLLEQQ,< -0.25
21,LGRVVRRADRRAVHITAGGM,< -0.25
22,LGSAQST,< -0.25
23,LGSDMFNQFRSGFATRCRIY,< -0.25
24,LGSER,< -0.25
